Assay [1] addresses NBS1 (endogenous, U2OS) (human (endogenous in U2OS)) (UniProt O60934). Nature of the assay: co-IP; nuclear extracts of U2OS::HA FBXW7ΔF cells (dominant negative FBXW7) treated with ammonium chloride; immunoprecipitation with anti-NBS1; immunoblotting.
In assay [2] the target is T1, MRE11 (endogenous, U2OS) (human (endogenous in U2OS)) (UniProt P49959).
T1 sequence: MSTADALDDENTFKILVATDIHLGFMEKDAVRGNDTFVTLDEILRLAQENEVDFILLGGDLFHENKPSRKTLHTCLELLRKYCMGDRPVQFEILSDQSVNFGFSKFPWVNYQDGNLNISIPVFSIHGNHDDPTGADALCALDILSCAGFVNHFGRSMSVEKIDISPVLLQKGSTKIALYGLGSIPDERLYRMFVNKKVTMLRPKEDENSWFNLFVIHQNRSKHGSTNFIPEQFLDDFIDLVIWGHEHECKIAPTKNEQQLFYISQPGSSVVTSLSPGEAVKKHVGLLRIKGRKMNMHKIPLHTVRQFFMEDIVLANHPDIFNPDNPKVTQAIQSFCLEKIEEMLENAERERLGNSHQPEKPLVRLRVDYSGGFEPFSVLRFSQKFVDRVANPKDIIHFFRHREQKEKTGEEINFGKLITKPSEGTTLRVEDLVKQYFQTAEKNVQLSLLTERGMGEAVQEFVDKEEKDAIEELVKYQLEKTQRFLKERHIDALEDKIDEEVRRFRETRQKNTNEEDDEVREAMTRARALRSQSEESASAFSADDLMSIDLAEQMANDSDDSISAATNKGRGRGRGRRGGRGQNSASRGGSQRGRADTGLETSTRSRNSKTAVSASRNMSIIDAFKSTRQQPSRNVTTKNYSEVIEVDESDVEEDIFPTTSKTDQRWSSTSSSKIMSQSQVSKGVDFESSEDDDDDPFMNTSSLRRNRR
In words: co-IP; U2OS cells treated with ammonium chloride for 24 h; NP40 extracts; endogenous MRE11, NBS1 or RAD50 immunoprecipitated, normal mouse or rabbit sera as control; immunoblotting.

By UniProt entry, the sequences of proteins in these tests, tags left out.
UniProt O60934: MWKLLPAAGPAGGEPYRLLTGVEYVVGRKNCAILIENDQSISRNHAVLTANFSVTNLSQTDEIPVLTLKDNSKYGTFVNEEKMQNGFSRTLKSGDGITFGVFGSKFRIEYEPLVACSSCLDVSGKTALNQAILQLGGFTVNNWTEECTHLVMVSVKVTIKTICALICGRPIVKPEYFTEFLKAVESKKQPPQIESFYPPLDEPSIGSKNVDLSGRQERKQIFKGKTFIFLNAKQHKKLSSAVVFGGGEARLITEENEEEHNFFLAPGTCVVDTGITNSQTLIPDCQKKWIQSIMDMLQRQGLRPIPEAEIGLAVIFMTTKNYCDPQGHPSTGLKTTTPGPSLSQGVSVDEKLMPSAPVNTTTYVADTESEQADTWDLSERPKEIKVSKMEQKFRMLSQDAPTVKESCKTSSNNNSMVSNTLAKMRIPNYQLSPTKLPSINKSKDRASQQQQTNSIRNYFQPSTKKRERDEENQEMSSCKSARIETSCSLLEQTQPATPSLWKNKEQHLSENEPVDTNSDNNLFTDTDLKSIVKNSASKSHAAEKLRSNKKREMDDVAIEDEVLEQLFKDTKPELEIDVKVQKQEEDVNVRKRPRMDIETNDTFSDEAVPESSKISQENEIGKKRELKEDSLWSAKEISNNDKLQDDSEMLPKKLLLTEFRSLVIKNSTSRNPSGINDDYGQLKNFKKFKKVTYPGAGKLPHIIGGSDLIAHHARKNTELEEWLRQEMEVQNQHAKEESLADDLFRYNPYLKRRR
UniProt Q92878: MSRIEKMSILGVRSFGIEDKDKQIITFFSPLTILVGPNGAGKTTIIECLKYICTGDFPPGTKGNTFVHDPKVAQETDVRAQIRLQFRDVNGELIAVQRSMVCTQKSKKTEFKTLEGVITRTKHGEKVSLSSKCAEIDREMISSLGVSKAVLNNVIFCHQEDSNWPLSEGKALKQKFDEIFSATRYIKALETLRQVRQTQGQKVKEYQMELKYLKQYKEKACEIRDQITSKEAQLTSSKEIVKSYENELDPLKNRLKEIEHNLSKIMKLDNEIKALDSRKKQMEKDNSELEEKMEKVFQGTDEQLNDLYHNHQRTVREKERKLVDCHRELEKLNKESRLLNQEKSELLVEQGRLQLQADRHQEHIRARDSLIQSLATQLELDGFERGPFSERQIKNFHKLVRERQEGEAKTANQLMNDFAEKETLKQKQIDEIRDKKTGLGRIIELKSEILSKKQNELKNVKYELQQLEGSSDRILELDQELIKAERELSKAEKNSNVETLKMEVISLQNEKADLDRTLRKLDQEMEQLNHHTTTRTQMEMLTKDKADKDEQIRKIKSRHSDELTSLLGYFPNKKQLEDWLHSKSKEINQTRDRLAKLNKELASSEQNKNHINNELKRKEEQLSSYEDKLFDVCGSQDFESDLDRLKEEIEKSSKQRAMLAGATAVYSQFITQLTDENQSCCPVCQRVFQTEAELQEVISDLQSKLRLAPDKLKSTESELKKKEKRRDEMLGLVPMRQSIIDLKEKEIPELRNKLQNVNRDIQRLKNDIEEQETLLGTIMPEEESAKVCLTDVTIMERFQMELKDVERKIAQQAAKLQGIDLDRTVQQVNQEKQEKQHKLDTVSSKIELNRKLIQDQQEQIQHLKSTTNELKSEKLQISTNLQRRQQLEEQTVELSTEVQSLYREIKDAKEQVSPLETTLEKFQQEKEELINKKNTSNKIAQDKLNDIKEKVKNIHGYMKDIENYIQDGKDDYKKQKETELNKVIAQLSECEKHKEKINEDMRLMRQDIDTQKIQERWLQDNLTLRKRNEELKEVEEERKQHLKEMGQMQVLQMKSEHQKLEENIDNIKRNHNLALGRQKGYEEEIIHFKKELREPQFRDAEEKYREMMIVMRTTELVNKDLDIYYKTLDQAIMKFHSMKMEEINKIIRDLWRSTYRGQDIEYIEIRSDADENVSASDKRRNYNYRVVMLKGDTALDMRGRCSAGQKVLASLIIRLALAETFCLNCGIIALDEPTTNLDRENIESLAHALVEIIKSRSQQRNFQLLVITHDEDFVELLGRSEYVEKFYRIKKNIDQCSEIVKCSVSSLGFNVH
UniProt Q969H0: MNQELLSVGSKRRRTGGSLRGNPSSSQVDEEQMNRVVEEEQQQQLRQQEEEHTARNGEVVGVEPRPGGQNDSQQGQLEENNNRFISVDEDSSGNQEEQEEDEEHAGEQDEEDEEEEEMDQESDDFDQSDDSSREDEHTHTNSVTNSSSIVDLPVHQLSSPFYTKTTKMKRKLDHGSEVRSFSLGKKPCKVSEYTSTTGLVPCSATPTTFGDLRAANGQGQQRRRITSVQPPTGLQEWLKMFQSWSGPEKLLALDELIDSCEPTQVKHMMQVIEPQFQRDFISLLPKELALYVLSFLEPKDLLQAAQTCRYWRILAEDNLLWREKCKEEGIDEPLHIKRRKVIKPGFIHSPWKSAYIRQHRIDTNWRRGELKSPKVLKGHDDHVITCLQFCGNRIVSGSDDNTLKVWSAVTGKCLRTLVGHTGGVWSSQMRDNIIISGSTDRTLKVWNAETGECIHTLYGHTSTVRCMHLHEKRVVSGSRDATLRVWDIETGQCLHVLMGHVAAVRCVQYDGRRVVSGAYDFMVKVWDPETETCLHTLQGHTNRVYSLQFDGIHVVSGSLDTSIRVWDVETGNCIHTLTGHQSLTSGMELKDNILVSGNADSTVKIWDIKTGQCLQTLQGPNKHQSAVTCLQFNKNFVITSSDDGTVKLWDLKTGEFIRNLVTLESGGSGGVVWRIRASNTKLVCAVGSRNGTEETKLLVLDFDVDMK
UniProt P53350: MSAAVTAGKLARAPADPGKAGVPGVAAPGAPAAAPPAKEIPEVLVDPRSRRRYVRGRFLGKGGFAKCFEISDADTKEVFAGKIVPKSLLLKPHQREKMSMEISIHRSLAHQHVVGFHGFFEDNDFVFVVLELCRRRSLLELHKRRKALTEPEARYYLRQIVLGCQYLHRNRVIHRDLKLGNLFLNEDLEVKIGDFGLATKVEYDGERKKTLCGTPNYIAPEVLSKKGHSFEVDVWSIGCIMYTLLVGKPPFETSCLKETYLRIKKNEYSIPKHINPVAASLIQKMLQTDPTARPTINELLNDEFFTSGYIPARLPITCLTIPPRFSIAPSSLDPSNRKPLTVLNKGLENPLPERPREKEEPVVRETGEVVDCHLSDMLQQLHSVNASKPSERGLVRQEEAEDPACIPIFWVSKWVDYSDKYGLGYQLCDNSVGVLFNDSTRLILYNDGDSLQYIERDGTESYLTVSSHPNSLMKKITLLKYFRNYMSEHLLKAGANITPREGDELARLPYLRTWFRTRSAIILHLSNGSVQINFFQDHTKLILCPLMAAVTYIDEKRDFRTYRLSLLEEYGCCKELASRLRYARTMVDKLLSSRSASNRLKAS

The target of assay [3] is NBS1 (endogenous, U2OS) (human (endogenous in U2OS)) (UniProt O60934). The description is as above.
For assay [4], the target named is RAD50 (endogenous, U2OS) (human (endogenous in U2OS)) (UniProt Q92878). The description is as above.
Assay [5] addresses NBS1 (endogenous, U2OS) (human (endogenous in U2OS)) (UniProt O60934). Nature of the assay: co-IP; nuclear extracts (NE) of U2OS cells (also U2OS::HA FBXW7 cells) treated with ammonium chloride; immunoprecipitation with anti-NBS1 rabbit monoclonal antibody or normal rabbit serum; immunoblotting.
In assay [6] the target is FBXW7 (endogenous, U2OS) (human (endogenous in U2OS)) (UniProt Q969H0). Nature of the assay: co-IP; nuclear extracts of untreated U2OS cells; endogenous FBXW7 immunoprecipitated with anti-FBXW7, normal rabbit serum as control; immunoblotting.

No constants are given. Whether binding was seen depends on the method and setting. In cells and extracts the contact can be indirect. Some results given as binding are weak or reduced against the parent protein; the word gives no strength.

As for “p62/SQSTM1 (endogenous, U2OS) (from UniProt Q13501 1-440)”, the binding result was “binds weakly” in assay [1]; “binds” in assay [2]; “binds” in assay [3]; “binds” in assay [4]; “binds” in assay [5].
“RAD50 (endogenous, U2OS) (from UniProt Q92878 1-1312)”: the binding entry in assay [6] is reported as “binds”.
On the same count and under the same terms, the entry for “PLK1 (endogenous, U2OS) (from UniProt P53350 1-603)” is “binds”; for “NBS1 (endogenous, U2OS) (from UniProt O60934 1-754)” it is “binds”.

Values taken from paper PMC9950126.
